Results are given in words; binding and its absence hold for the method and conditions named. In cells and extracts the contact can be indirect. Some binding calls cover weakened binding; strength is not graded here.

Chains of the proteins cited; added tags and fusions are not shown.
UniProt Q93074: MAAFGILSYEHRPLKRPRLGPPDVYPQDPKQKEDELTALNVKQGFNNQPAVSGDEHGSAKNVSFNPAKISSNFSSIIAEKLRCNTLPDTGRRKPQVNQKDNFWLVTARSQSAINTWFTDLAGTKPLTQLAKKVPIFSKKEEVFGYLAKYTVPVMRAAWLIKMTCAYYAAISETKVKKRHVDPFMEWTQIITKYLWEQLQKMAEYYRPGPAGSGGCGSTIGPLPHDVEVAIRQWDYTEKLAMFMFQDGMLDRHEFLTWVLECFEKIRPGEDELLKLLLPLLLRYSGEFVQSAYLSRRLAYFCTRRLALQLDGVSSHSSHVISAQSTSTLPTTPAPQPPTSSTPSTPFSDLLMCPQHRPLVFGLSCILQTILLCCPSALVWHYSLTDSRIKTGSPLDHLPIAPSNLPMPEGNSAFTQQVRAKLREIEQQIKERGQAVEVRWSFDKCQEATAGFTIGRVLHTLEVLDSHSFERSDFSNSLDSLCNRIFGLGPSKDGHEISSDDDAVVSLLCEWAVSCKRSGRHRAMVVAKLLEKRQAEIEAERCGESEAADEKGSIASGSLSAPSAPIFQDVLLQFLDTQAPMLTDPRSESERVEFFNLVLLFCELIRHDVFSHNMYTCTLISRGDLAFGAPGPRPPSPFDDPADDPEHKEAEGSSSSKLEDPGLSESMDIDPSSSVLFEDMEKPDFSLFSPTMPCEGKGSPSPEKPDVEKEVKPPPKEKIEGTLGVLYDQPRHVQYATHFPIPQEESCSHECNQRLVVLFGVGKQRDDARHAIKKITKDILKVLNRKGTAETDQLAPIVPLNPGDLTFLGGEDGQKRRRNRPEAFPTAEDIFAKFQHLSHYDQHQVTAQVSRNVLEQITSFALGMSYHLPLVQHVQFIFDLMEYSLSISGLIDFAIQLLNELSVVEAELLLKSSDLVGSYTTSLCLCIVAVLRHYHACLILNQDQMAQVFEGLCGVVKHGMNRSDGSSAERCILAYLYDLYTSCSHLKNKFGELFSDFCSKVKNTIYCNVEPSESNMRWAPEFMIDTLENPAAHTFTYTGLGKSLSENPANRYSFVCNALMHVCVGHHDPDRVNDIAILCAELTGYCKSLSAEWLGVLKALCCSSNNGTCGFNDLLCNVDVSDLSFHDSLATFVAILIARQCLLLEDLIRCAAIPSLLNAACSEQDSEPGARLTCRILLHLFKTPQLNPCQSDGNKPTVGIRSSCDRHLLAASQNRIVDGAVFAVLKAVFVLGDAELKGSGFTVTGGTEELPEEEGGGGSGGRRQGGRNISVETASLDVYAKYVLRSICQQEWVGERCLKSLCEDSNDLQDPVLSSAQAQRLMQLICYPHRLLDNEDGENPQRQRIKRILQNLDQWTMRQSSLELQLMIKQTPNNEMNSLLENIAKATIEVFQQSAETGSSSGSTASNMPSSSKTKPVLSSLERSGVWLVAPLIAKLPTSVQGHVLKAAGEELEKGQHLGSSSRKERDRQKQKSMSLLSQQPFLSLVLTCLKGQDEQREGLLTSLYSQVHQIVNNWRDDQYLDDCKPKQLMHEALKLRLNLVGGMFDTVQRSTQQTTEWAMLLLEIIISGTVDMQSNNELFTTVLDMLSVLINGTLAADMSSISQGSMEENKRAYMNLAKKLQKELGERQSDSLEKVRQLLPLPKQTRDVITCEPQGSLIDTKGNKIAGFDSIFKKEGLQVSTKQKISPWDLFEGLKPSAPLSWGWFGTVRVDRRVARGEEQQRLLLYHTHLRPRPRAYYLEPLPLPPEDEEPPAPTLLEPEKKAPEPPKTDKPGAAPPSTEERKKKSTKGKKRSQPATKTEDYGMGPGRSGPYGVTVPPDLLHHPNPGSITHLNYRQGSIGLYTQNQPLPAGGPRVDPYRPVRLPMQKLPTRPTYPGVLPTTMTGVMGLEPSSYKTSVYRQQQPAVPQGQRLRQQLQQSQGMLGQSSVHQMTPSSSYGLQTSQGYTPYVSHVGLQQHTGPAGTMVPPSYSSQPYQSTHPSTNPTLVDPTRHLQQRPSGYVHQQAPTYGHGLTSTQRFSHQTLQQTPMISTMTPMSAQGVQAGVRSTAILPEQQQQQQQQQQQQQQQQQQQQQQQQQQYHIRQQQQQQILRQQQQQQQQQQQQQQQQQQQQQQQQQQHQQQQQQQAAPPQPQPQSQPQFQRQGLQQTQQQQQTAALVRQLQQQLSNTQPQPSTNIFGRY
UniProt P46937: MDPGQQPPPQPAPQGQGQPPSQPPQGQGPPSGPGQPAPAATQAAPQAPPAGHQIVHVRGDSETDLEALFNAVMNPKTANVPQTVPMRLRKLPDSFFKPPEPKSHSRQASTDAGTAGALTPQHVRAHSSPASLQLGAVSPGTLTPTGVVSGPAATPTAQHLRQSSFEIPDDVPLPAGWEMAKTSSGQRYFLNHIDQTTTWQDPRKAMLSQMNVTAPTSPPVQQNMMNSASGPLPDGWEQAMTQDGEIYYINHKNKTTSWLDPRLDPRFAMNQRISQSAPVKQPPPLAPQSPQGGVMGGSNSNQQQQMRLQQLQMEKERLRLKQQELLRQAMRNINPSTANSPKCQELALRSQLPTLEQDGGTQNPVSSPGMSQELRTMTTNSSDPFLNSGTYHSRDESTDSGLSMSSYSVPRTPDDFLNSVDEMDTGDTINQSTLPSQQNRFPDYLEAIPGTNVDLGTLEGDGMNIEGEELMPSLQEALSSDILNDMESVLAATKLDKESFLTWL

The target in the assay is Mediator complex subunit 12 (MED12) (human (endogenous in NSCLC cell lines)) (UniProt Q93074). The assay can be described thus: co-IP; lysates from the cell lines; 1 mg lysate in Pierce IP lysis buffer, anti-MED12 antibody (1:100) with Protein A/G PLUS-Agarose at 4 °C, four washes; immunoblot with anti-YAP. (In western blotting, separated proteins are transferred to a membrane and probed.)

As to YAP (from UniProt P46937 1-504), the binding entry is given as “binds”.

The values above are taken from paper PMC12367601.
